Reference: patent publication US11344614B2, “Pharmaceutical compositions comprising dengue virus-specific multiple HLA-binding T cell epitopes” (priority 2018, dated 2022)
Part of at least one peptide drawing is inferred or uncertain, most often the ends. Peptide text beside a SMILES is read from it.

System: CD8+ T cells
Format: cell-based, human
Details: healthy seronegative HLA-A2 donor CTLs; JY cells pulsed with peptides or infected with dengue virus; overnight; FIG. 1A

In the case of `CC[C@H](C)[C@H](NC(=O)[C@H](Cc1ccccc1)NC(=O)[C@H](C)N)C(=O)N[C@@H](C)C(=O)N[C@@H](Cc1ccccc1)C(=O)N[C@H](C(=O)N[C@@H](CCCNC(=N)N)C(=O)N[C@@H](Cc1ccccc1)C(=O)O)C(C)C` [AFI] (H-AFIAFVRF-OH; N-terminus and C-terminus assumed), the “T cell activation as measured by IFN-gamma secretion” value is reported as “specific T cell activation”.
